Read-outs that look alike come from different tables or passages of the source. These are yes or no findings as the source states them, for the method shown. A result given as binding can be weak or reduced; the word gives no strength. Sequences can lack the tags named with a protein.
Assays:
Assay in all cases: TIRF microscopy of purified fluorescent protein on microtubules
EB1 (Drosophila) = target: EB1 (Drosophila)
[1] = target: Microtubules polymerised from S2 tubulin (Drosophila (endogenous in S2 cells))
[2] = target: Microtubules polymerised from S2 tubulin (Drosophila (endogenous in S2 cells)); remark: listed apart in the source

binding (EB1 (Drosophila)): binds
binding [1]: binds
binding [2]: binds
B1: GFP-CLASP^Mast/Orbit (wild-type) (protein, UniProt Q9NBD7 1-1491)
chain: MAYRKPSDLDGFIQQMPKADMRVKVQLAEDLVTFLSDDTNSIVCTDMGFLIDGLMPWLTGSHFKIAQKSLEAFSELIKRLGSDFNAYTATVLPHVIDRLGDSRDTVREKAQLLLRDLMEHRVLPPQALIDKLATSCFKHKNAKVREEFLQTIVNALHEYGTQQLSVRVYIPPVCALLGDPTVNVREAAIQTLVEIYKHVGDRLRPDLRRMDDVPASKLAMLEQKFDQVKQEGLLLPSALKNTNGNGVGLDEADNIGLRERPTRMIKRPLHSAVSSSLRPKPNVNDVTGDAGAVTMESFESSFEVVPQLNIFHAKDMDDIYKQVLVIISDKNADWEKRVDALKKIRALLILSYHTQPQFVAVQLKELSLSFVDILKEELRSQVIREACITIAYMSKTLRNKLDAFCWSILEHLINLIQNSAKVIASASTIALKYIIKYTHAPKLLKIYTDTLNQSKSKDIRSTLCELMVLLFEEWQTKALERNATVLRDTLKKSIGDADCDARRHSRYAYWAFRRHFPELADQIYGTLDIAAQRALEREREGGGGGGTGTGTGTAPETRRTVSRIGRTPGTLQKPTPSMRSISAVDTAAAQRAKVRAQYTLYSRQRKPLGPNNSNQASMTGAAASGSLPRPRLNSNSGGTPATTPGSVTPRPRGRAGVSQSQPGSRSTSPSTKLRDQYGGIGNYYRGATGAIPKKASGIPRSTASSRETSPTRSGGGLMKRSMYSTGAGSRRTPERNNPVRPSAAARLLAQSREAEHTLGVGDDGQPDYVSGDYMRSGGMRMGRKLMGRDESDDIDSEASSVCSERSFDSSYTRGNKSNYSLSGSHTRLDWSTQRAPFDDIETIIQFCASTHWSERKDGLISLTQYLADGKELTQQQLKCVLDMFRKMFMDTHTKVYSLFLDTVTELILVHANELHEWLFILLTRLFNKLGTDLLNSMHSKIWKTLQVVHEYFPTQLQLKELFRIISDSTQTPTTKTRIAILRFLTDLANTYCKSSDFPSDQSQACERTVLKLAQLAADQKSMELRSQARSCLVALYNLNTPQMTLLLADLPKVYQDSARSCIHSHMRRQSQSCNSGANSPSSSPLSSSSPKPLQSPSVGPFASLQSHHHQLSISSTSPRSRQSSVEQELLFSSELDIQHNIQKTSEEIRHCFGGQYQTALAPNGFNGHLQYHDQGQQDSCASLSSNSKTQSSANTTQSNTPESATMRLDNLERERTTQNAKSPTDDAKVITVSINMAENGELILASNLMESEVVRVALTLTKDQPVELLQTSLTNLGICIKGGNCELPNKHFRSIMRMLLNILEAEHTDVVIAGLHVLSKIMRSNKMRHNWMHFLELILLKIIQCYQHSKEALRDIDSMIPRIAPSLPLDLSINIVNPVIATGEFPTNLCAIKILLEVTEHHGSEITDAHLDIVFPNLARSADDTQSMVRKAAVFCIVKLYFVLGEEKVKPKLSVLNPSKVRLLNVYIEKQRNCISGGGSSTKNSSAASSS

Reference: article doi:10.1101/051672
